{"sequences": {"note": "Protein sequences, listed by entry. Tags and fused reporters are not part of them.", "UniProt P0A6A8": "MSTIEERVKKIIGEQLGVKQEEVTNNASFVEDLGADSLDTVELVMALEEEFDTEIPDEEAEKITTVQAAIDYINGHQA"}, "source": "paper PMC6361424", "binders": {"B1": {"name": "AcpSEc (E. coli Acyl Carrier Protein Synthase) (enzyme, UniProt P24224 1-126)", "chain": "MAILGLGTDIVEIARIEAVIARSGDRLARRVLSDNEWAIWKTHHQPVRFLAKRFAVKEAAAKAFGTGIRNGLAFNQFEVFNDELGKPRLRLWGEALKLAEKLGVANMHVTLADERHYACATVIIES"}}, "molecular_target": "His7-ACPEc (E. coli acyl carrier protein) (E. coli MG1655) (UniProt P0A6A8)", "assay": "pull-down; His7-ACPEc and AcpSEc coexpressed in E. coli C41(DE3); clarified lysate on His60 Superflow resin in buffer O (500 mM NaCl, 50 mM Tris pH 8.8, 10 mM MgCl2, 5 mM β-mercaptoethanol, 20 mM imidazole), wash 40 mM imidazole, eluted with increasing imidazole; SDS-PAGE", "note": "No constants are given. Whether binding was seen depends on the method and setting. Binding seen in cells or lysates may run through a third protein. Some entries that bind do so weakly or less than the wild type.", "data": [{"binder": "B1", "values": [{"measurement": "binding", "result": "binds"}]}]}
